# In PubChem BioAssay AID1508600 (Functional Genomics Laboratory (NCATS/FGL), 2020):
# Hit rate of the full screen: of about 53,000 sequences, about 3,700 (7%) were called active.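 How the source made its calls: active means gene knockdowns whose robust z-score for IL-1 alpha signal is at least 2 or at most -2, so actives lie on both sides; inactive means the rest.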 The list shows a part of the results.
# Assay: Components of the Cytosolic LPS Sensing Pathway: Gene Identification via Genome-wide siRNA Screen;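 further: robust z of the log signal after scaling to non-targeting control siRNA wells of the plate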
# Settings: RAW264.7 macrophages, IL-1a HTRF, actives lie on both sides, screened at 100 nM (by protocol), cells primed 5 h with Pam3CSK4 first
# Outline: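 Three distinct siRNAs per gene were tested singly at 100 nM in RAW264.7 macrophages. Following Pam3CSK4 priming and 24 hour LipidA transfection, IL-1a secretion was read by HTRF.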
row,Sequence,z-score
1,CCCGUUAUCUUCCCAACUGTT against Krtap31-1,inactive: -0.226
2,GGUCAUUGAAAACUGUGCGTT against Sardh,inactive: -1.04
3,GGUGAUUUGAACCUUUUGATT against Rab3d,inactive: -0.63
4,GGACGUAGAAGUUUGGGAGTT against Nupl2,inactive: 1.39
5,CCGCUCACUUCUUGAAUAUTT against Rnf125,inactive: 0.388
6,GCCAUUAAUGUACCAGGUUTT against Olfr894,inactive: -0.202
7,GGAACAAUCAAACUGGCUGTT against Cdk1,inactive: -1.39
8,GCCCUGUACAGUCAGUACATT against Kifbp,inactive: 1.43
9,CCUGAUGCAACACAGGUCCTT against Zbtb26,inactive: 0.352
10,GGGUGGUAACAACAUUAAATT against Bicc1,inactive: -0.649
11,GGGUAACAGUGCCUUUACUTT against Med12,inactive: 0.47
12,GGGCAUUUAAAAUAAGGCATT against Nfib,inactive: 0.677
13,GGCCAAUCUCACCUGGACATT against Man2b1,inactive: -0.421
14,CCACACCAAGGACUUAUGGTT against Cd248,inactive: -0.584
15,GCUACGCUUCCUUAUUUGCTT against Tubgcp3,inactive: 0.525
16,GGAUGAGAAACUUCAGCUGTT against Dnajc22,inactive: -0.861
17,CGAACCAUAGCUAGCUCCATT against Klhdc8b,inactive: -0.869
18,GCACAUUGGGAUAGCUGCATT against Trim65,inactive: 1.48
19,GCCAUCCUUCCAUUUAAGATT against Wdyhv1,inactive: -0.478
20,GGGAACUGUUCCAUCUUGCTT against Olfr606,inactive: 0.979
21,CCCUUAGUUUGACACACUUTT against Tal2,inactive: -0.301
22,GGAGGAAUUUGAGAAGAAUTT against Lasp1,inactive: 0.402

row,Sequence,z-score
1,GGCUUGAUCAUGACUUAAATT against Armc8,inactive: 0.638
2,GGGAAUUCCUUUAUUGAUCTT against Dhrs9,inactive: -1.9
3,GAGAGAGAAUACCACUGUGTT against Gm5431,inactive: -0.244
4,GCUUUGGUAGAUCCUAAUATT against Ms4a7,inactive: 0.816
5,GGCAAUGUCAGAGCUAAUCTT against Mettl25,inactive: 0.596
6,GGAACCAAUAAAUCUGUGCTT against Rfxank,inactive: 1.31
7,CCAAAUACCAUUUCCUACATT against Olfr495,inactive: 1.21
8,GCAUUCAUUUGAGCUCGGUTT against Emc10,inactive: -0.00572
9,GGUUUGAUUAUACCUAUCATT against Tenm2,inactive: -0.337
10,GGAAGUCCGUUUUUAAGAATT against Zfp14,inactive: -0.276
11,GGGUUAUAACUCCUAUUUCTT against Apex2,inactive: -0.973
12,CCUGUUACCCUAUAUUUUGTT against Vmn1r82,inactive: -1.02
13,GGAUCGAAAUAGCUCAUGCTT against Hoxa5,inactive: 0.64
14,GCUAUAAAAUCUGCACAAGTT against Amy2a5,inactive: 0.378
15,GGUGACCAAACUUAUCUACTT against Ercc2,inactive: -1.15
16,GGAGAAAUUGCCUUUGAUCTT against Pdik1l,inactive: 0.416
17,CGCAAAGACUUAUAUUGAGTT against Nsrp1,inactive: -0.511
18,GGAUGCAUAUUUUAGAAGATT against Mrtfb,inactive: 0.365
19,GCAAACGGACACUUGGAAUTT against Hmx1,inactive: -0.9
20,GGAUUUCUCCAUGAUGAGATT against Prss44,inactive: -1.6
21,GGCUUUACGAGGAAAAAGGTT against Pex1,active: 2.09
22,GGUAUAUCUGAGUUUCUACTT against Sgcz,inactive: 0.496

row,Sequence,z-score
1,GGUCAGGUGGCUCAAGAAGTT against Plod3,inactive: 1.34
2,GGAUGACUAAAAUGUUAAGTT against Slc20a2,inactive: 0.192
3,GGAGAGUUUUCCAGAAUAUTT against Olfr148,inactive: 1.32
4,CCAUUAAAUGCUGUUGUACTT against Dctn2,inactive: 0.87
5,CGGACAUGACAAAACUAGATT against Eef1b2,inactive: 0.628
6,GGGCCCAUUUUCAGAAAUGTT against Tagln3,inactive: 0.0546
7,GGAGAGCUAUGUGGUGCUUTT against Wdr4,inactive: 0.548
8,GCUGGCAACGUGCUUAUGATT against Stk10,inactive: -0.0184
9,GGAACUUUGCUUUGAUGAUTT against Myo9b,inactive: 0.179
10,GCUCUCAGCAUCUUCUAUUTT against Tas2r124,inactive: -1.01
11,GCUAUCGUGAUAAUCUGGATT against Gxylt2,inactive: -0.113
12,CGAUAUCCCAACAGUAAUATT against Nlrp6,inactive: -0.2
13,GGAAAAUCUAGAAGACAAUTT against Rwdd1,inactive: 1.73
14,GGGUGUAUGAUCCAGUUAUTT against Olfr913,inactive: 0.965
15,GGUCCAUUAUCGAUUUCAUTT against Zfp954,inactive: 0.175
16,GGAAAUGCCCACUAAAUUUTT against Rpl7l1,inactive: 0.456
17,GGCACAAGAAAUUUGAUGATT against Gpc6,inactive: -1.91
18,GCACAGAGCCUAAUCAUUCTT against Oog2,inactive: 0.171
19,CCUCUAGCAUUAGAAACACTT against Pax3,inactive: -1.35
20,CCCAAUUCUUUCAACCCAGTT against Caln1,inactive: -0.896
21,GCACGGUAUCUCGAAGUCGTT against Spata18,inactive: -0.785
22,GGGAUUCAUAAGGAGAAAATT against Tspan7,inactive: -0.662

# Looked up one by one from above (6):
row,Sequence,z-score
12,CCUGUUACCCUAUAUUUUGTT against Vmn1r82,inactive: -1.02
19,CCUCUAGCAUUAGAAACACTT against Pax3,inactive: -1.35
17,CGCAAAGACUUAUAUUGAGTT against Nsrp1,inactive: -0.511
14,GGGUGUAUGAUCCAGUUAUTT against Olfr913,inactive: 0.965
4,GCUUUGGUAGAUCCUAAUATT against Ms4a7,inactive: 0.816
20,CCCAAUUCUUUCAACCCAGTT against Caln1,inactive: -0.896

# As entered above.
# For z-score, GGAUGACUAAAAUGUUAAGTT against Slc20a2 has inactive: 0.192
# For z-score, GGAGAGUUUUCCAGAAUAUTT against Olfr148 has inactive: 1.32

# Next results follow.

row,Sequence,z-score
1,GCCACAAGCAAUAGUCAGATT against Gm867,inactive: 0.117
2,GGAUCUCAGUGAAGGAGGUTT against Dlk2,inactive: -0.579
3,GCUACUCUUAUUCUACUUCTT against Slc29a3,inactive: 0.145
4,GGUUUUUUUUUCGGCUUACTT against Cnga3,inactive: -0.301
5,CGCGUAUUUGAGAGAUUCUTT against Ckmt2,inactive: -0.282
6,CCGUGAAUUUGGAUGAUGGTT against T2,inactive: -1.98
7,GGAAAGCUAAGGCUGUACUTT against Dnal1,inactive: -0.103
8,GCUGUACGUUGUAUGUUGGTT against Ncbp2,inactive: -0.167
9,GGUCGAGUAUGCCUACAGUTT against Mlx,inactive: 0.793
10,GCUACCUGUAUUUAUCUCCTT against Adap1,inactive: 0.353
11,GCCAUCCUUGUGCUAAGAGTT against Ifna4,inactive: -0.604
12,GGACUGAAGAACUUGAAAGTT against Nepn,inactive: 1.24
13,GGACAGUGGAAGGAAUCCATT against 2310033P09Rik,active: -2.91
14,GGUAAACAGAGGUUUUAAGTT against Golga3,inactive: -0.201
15,GGGCAAGCAGUUUUUAUGGTT against Mcph1,inactive: -1.13
16,CGGACAACAACCUCUGCCATT against Pycrl,inactive: -0.0622
17,GGUGUUGCAUUCAGAUUUUTT against Gimap3,inactive: 1.69
18,GGCGUAAACAUGGUGUGCATT against Taok3,inactive: -0.807
19,GGGUAACCACAGAGAGAAUTT against Slc12a4,inactive: -1.38
20,GGGAAUAGAUCUGAACCGUTT against Cpe,inactive: -0.0212
21,GGAACUCACUAACUUCUUGTT against Ccdc116,inactive: -1.05
22,GGAAAGCAUGUUGUACUUATT against Ggact,inactive: -0.724

row,Sequence,z-score
1,GGGUCAAGAAGAAUCUUCUTT against Ppp1r14d,inactive: -1.12
2,GGAGAUCAACAUCUAUCAGTT against Septin1,inactive: 0.0226
3,GGACAAAGAUAAUGGAAAATT against Erlec1,inactive: 0.353
4,GCUGUACUAUCUUUUUCAUTT against Olfr165,inactive: -0.0549
5,GGUUGUUAGGAAUCGAUCCTT against Rps26,inactive: 0.964
6,GCAUUUAUUUGGUGGUGUUTT against Olfr1245,inactive: 0.104
7,GGAUCUUAUUUCAGAGCCCTT against Trhr2,inactive: 0.732
8,GGAUACAUCAGUUUGUAGATT against Abhd6,inactive: -0.789
9,GGUUUACAACCAAAGCUUUTT against Tafa4,inactive: 0.961
10,GGCCUUCUCCAAGGAGAAGTT against Cavin1,inactive: -1.16
11,GCAUCCGUUCUCCCUUAUGTT against Mrpl4,inactive: 0.461
12,GGCUACUCGGCCCUCUGUUTT against 4930404N11Rik,inactive: -1.67
13,GGACCAGCCGAAAAUUACCTT against Cnksr2,inactive: 0.746
14,GGGCAUCAAUUUAAGAAGCTT against Fam13a,inactive: 0.0141
15,GGAUGUGCGUUCUCACAACTT against Suox,inactive: -0.649
16,GGAUAAAAGCAGAUAUGACTT against Hapln1,inactive: 0.0378
17,GGUAUUUGUUAGGCCACAGTT against Svs4,inactive: 0.108
18,CCCAGCUGAAGUCUCAAAUTT against Cd209c,inactive: 1.17
19,CCCAUUAUUGGCACUACAATT against BB014433,inactive: -0.108
